Test results from patent publication US12083089B2, “Compositions and methods for stimulating ventilatory and/or respiratory drive” (CASE WESTERN RESERVE UNIVERSITY, priority 2015, dated 2024).

Tested on: rats
Assay: Sedation observation in morphine-treated rats
Details: morphine 10 mg/kg IV plus vehicle

## CN1CC[C@]23c4c5ccc(O)c4O[C@H]2[C@@H](O)C=C[C@H]3[C@H]1C5 [Morphine, morphine]
  time rats remained obviously sedated: approximately 60 min
